Drawing on paper PMC13649115, this text covers binding for one molecule.

This test concerns the target T1, MARCHF5 (human (endogenous in BC-3)) (UniProt Q9NX47).
T1 sequence: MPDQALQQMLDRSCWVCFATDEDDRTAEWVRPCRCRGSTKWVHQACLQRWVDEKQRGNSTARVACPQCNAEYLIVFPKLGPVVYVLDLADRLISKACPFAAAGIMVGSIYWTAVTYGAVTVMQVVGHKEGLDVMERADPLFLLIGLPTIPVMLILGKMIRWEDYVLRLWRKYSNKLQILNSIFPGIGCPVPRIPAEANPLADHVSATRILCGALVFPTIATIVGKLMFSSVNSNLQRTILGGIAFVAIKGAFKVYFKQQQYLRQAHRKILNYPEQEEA
In words: co-IP; reciprocal co-IP of endogenous proteins from BC-3 cells; lysis in IP buffer (25 mM HEPES, 100 mM NaCl, 10 mM CaCl2, 5 mM MgCl2) with 1% digitonin; anti-NOXA, anti-MARCHF5 or rabbit IgG overnight at 4 C, Protein A/G magnetic beads; Western blot for MARCHF5 or NOXA. A general note: A western blot detects proteins with antibodies after separation by electrophoresis.

Results are given in words; binding and its absence hold for the method and conditions named. In cells and extracts the contact can be indirect. Some entries that bind do so weakly or less than the wild type.

B1: NOXA (protein, UniProt Q13794 1-54)
chain: MPGKKARKNAQPSPARAPAELEVECATQLRRFGDKLNFRQKLLNLISKLFCSGT
Consider B1, for which the binding result was “binds”.
